{"source": "patent US20190178896A1", "about": "“MARKER FOR THE CLASSIFICATION, DIAGNOSIS AND TREATMENT OF SCOLIOSIS” (Chu Sainte-Justine, priority 2013, published 2019)", "system": "Gs and Gq proteins", "experiment": "Gs and Gq siRNA knockdown effect on impedance signature of GiPCR agonists in osteoblasts", "format": "cell-based, human", "method": "Osteoblasts from control subjects and AIS patients of each functional group were transfected with scramble siRNA, Gs siRNA, or Gq siRNA. Efficiency of siRNA in control and AIS groups was verified with qPCR and Western blot analyses 48 hours after transfection, and response to stimulation with GiPCR agonist of cluster I, cluster II, cluster III and cluster IV was evaluated by challenging cells with 10 μM of (FIG. 14A-14D) LPA, (FIG. 14EA-14H) CB65, (FIG. 14I-14L) Somatostatin and (FIG. 14M-14P) Apelin-17, respectively. […] The impedance represented in y-axis as dziec was measured every 2 sec. Data are representative of impedance signatures generated by CellKey™ system in osteoblasts from 12 individuals tested three times in duplicate for each group.;\nAll Gi1, Gi2, Gi3, Gs and scrambled siRNA were obtained from Ambion (Ambion USA). The sequences used for gene silencing are shown in supplemental Table 3. Osteoblasts from control subjects and AIS patients were transiently transfected in serum-free medium, using Lipofectamine RNAiMAX reagent (Invitrogen) according to the manufacturer's instructions and functional experiments were performed 48 h post transfection. The gene knockdown was evaluated by quantitative real-time PCR (qPCR).\nThe possibility that the disparity in the shape of impedance among AIS groups in response to GiPCR activation implicates a component of Gs or Gq proteins-dependent response was then […] examined For this purpose, the small interference RNA (siRNA) approach was used to knockdown Gs or Gq proteins prior to stimulate cells.", "note": "For at least one compound, name, drawing or mass did not settle the structure."}
{"smiles": "C[C@H](N)C(=O)NCC(=O)N[C@H]1CSSC[C@@H](C(=O)O)NC(=O)[C@H](CO)NC(=O)[C@H]([C@@H](C)O)NC(=O)[C@H](Cc2ccccc2)NC(=O)[C@H]([C@@H](C)O)NC(=O)[C@H](CCCCN)NC(=O)[C@H](Cc2c[nH]c3ccccc23)NC(=O)[C@H](Cc2ccccc2)NC(=O)[C@H](Cc2ccccc2)NC(=O)[C@H](CC(N)=O)NC(=O)[C@H](CCCCN)NC1=O", "note": "[Somatostatin, somatostatin]", "values": [{"measurement": "Gs coupling (permissive) of agonist/GiPCR", "setting": "FG1", "result": "Somatostatin/Gs+"}, {"measurement": "Gq coupling (permissive) of agonist/GiPCR", "setting": "FG2", "result": "Somatostatin/Gq+"}, {"measurement": "Gs coupling (permissive) of agonist/GiPCR", "setting": "FG3", "result": "Somatostatin/Gs+"}]}
